According to patent publication US20130251707A1:
Results are given in words; binding and its absence hold for the method and conditions named. Some entries that bind do so weakly or less than the wild type.

The chains behind the UniProt entries cited, without tags or fusion partners. Where a name states a change or a piece, a line headed by the entry shows the natural chain unless it says otherwise.
UniProt P19438: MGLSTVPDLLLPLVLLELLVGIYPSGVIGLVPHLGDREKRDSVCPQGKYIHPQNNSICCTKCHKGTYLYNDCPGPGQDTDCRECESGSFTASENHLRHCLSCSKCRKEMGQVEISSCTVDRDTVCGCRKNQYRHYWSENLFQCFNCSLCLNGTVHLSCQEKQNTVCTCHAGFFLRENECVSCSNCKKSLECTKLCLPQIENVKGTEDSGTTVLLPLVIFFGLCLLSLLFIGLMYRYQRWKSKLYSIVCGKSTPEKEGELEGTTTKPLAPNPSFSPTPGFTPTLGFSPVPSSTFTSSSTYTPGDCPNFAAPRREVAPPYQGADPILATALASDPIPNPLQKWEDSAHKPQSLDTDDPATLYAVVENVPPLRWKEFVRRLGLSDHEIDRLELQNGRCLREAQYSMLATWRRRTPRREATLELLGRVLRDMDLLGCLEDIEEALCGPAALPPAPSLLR
UniProt P25445: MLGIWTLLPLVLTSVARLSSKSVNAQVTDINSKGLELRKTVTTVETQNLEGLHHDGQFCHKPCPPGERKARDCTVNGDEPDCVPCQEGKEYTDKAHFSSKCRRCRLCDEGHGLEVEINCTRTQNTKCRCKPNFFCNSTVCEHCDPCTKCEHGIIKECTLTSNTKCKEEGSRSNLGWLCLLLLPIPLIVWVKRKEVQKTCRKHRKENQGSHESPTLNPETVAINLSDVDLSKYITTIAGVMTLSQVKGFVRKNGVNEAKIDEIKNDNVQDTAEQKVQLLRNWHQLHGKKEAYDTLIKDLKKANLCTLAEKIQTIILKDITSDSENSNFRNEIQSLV

Tests used:
[1] = target: rhesus TNFR1-Fc (rhesus; human); test: discussion of the example's results
[2] = target: rhesus TNFR1-Fc (rhesus; human); test: summary of the example's binding assays
[3] = target: rhesus TNFR1-Fc (rhesus; human); test: quartz crystal microbalance, TNFR1-Fc immobilized
[4] = target: rhesus TNFR1-Fc (rhesus; human); test: species ELISA on coated TNFR1-Fc (FIG. 3b)
[5] = target: T1, human TNFR1-Fas on transfected mouse embryonic fibroblasts (human) (UniProt P19438+P25445); test: summary of the example's flow cytometry
[6] = target: T1, human TNFR1-Fas on transfected mouse embryonic fibroblasts (human); test: flow cytometry on transfected MEF cells (FIG. 2a,b)

Measured: binding

B1: ATROSAB (antibody, human IgG1, kappa, V domains shown)
VH: QVQLVQSGAEVKKPGSSVKVSCKASGYTFTDFYINWVRQAPGQGLEWIGEIYPYSGHAYYNEKFKARVTITADKSTSTAYMELSSLRSEDTAVYYCARWDFLDYWGQGTTVTVSS
VL: DIVMTQSPLSLPVTPGEPASISCRSSQSLLHSNGNTYLHWYLQKPGQSPQLLIYTVSNRFSGVPDRFSGSGSGTDFTLKISRVEAEDVGVYYCSQSTHVPYTFGGGTKVEIKR
binds: all assays above
